# Some entries share one result that the patent states for a list of compounds.
# Tested on: splenocytes
# Assay: Cell permeability via flow cytometry, splenocytes
# Type: cell-based, mouse
# Details: 1 μg/mL
# Protocol: To determine whether the F1 peptide has entered the cell by penetrating the plasma membrane, splenocytes and lymph node cells were isolated from 4-week-old ICR mice, cultured for 1 hour, treated with 1 μg/mL of fluorescent-labeled F1 and F2 peptides, respectively, and then cultured for 48 hours. Flow cytometry was then used to analyze a frequency of fluorescent-labeled cells over culture time (1, 4, 24, and 48 hours) to determine the frequency of cells into which the peptide moved.
Substance,positive cell frequency (of entire cells) (over 4 hours),positive cell frequency (of entire cells) (over 48 hours)
GCCGEIV [Peptide F1],30˜40%,–
GCDDDDDDDDCGEIV [Peptide F2],–,30˜40%
